According to publication PMC9105235:
No constants are given. Whether binding was seen depends on the method and setting. Binding seen in cells or lysates may run through a third protein. A yes stands for co-enrichment or nearness to the bait. Other partners may have been found.

What was measured:
[1] = biological target: PrC-CUL3-∆9 (human) (UniProt Q13618); assay: affinity purification with mass spectrometry; PrC-CUL3-WT or PrC-CUL3-∆9 precipitated with HPC4-sepharose overnight at 4 °C from lysates of tetracycline-induced Flp-In T-REx 293 cells (50 mM HEPES pH 7.5, 150 mM NaCl, 0.5% Nonidet P-40, 2 mM CaCl2); label-free LC-MS/MS, two independent experiments, empty vector as control
[2] = biological target: PrC-CUL3-WT (human) (UniProt Q13618); assay: as above

binding [1] | binding [2] | Binder
binds | binds | ZBTB14 (protein, UniProt O43829 1-449) MEFFISMSETIKYNDDDHKTLFLKTLNEQRLEGEFCDIAIVVEDVKFRAHRCVLAACSTYFKKLFKKLEVDSSSVIEIDFLRSDIFEEVLNYMYTAKISVKKEDVNLMMSSGQILGIRFLDKLCSQKRDVSSPDENNGQSKSKYCLKINRPIGDAADTQDDDVEEIGDQDDSPSDDTVEGTPPSQEDGKSPTTTLRVQEAILKELGSEEVRKVNCYGQEVESMETPESKDLGSQTPQALTFNDGMSEVKDEQTPGWTTAASDMKFEYLLYGHHREQIACQACGKTFSDEGRLRKHEKLHTADRPFVCEMCTKGFTTQAHLKEHLKIHTGYKPYSCEVCGKSFIRAPDLKKHERVHSNERPFACHMCDKAFKHKSHLKDHERRHRGEKPFVCGSCTKAFAKASDLKRHENNMHSERKQVTPSAIQSETEQLQAAAMAAEAEQQLETIACS
binds | binds | ZBTB17 (protein, UniProt Q13105 1-803) MDFPQHSQHVLEQLNQQRQLGLLCDCTFVVDGVHFKAHKAVLAACSEYFKMLFVDQKDVVHLDISNAAGLGQVLEFMYTAKLSLSPENVDDVLAVATFLQMQDIITACHALKSLAEPATSPGGNAEALATEGGDKRAKEEKVATSTLSRLEQAGRSTPIGPSRDLKEERGGQAQSAASGAEQTEKADAPREPPPVELKPDPTSGMAAAEAEAALSESSEQEMEVEPARKGEEEQKEQEEQEEEGAGPAEVKEEGSQLENGEAPEENENEESAGTDSGQELGSEARGLRSGTYGDRTESKAYGSVIHKCEDCGKEFTHTGNFKRHIRIHTGEKPFSCRECSKAFSDPAACKAHEKTHSPLKPYGCEECGKSYRLISLLNLHKKRHSGEARYRCEDCGKLFTTSGNLKRHQLVHSGEKPYQCDYCGRSFSDPTSKMRHLETHDTDKEHKCPHCDKKFNQVGNLKAHLKIHIADGPLKCRECGKQFTTSGNLKRHLRIHSGEKPYVCIHCQRQFADPGALQRHVRIHTGEKPCQCVMCGKAFTQASSLIAHVRQHTGEKPYVCERCGKRFVQSSQLANHIRHHDNIRPHKCSVCSKAFVNVGDLSKHIIIHTGEKPYLCDKCGRGFNRVDNLRSHVKTVHQGKAGIKILEPEEGSEVSVVTVDDMVTLATEALAATAVTQLTVVPVGAAVTADETEVLKAEISKAVKQVQEEDPNTHILYACDSCGDKFLDANSLAQHVRIHTAQALVMFQTDADFYQQYGPGGTWPAGQVLQAGELVFRPRDGAEGQPALAETSPTAPECPPPAE
binds | binds | ZBTB21 (protein, UniProt Q9ULJ3 1-1066) MEGLLHYINPAHAISLLSALNEERLKGQLCDVLLIVGDQKFRAHKNVLAASSEYFQSLFTNKENESQTVFQLDFCEPDAFDNVLNYIYSSSLFVEKSSLAAVQELGYSLGISFLTNIVSKTPQAPFPTCPNRKKVFVEDDENSSQKRSVIVCQSRNEAQGKTVSQNQPDVSHTSRPSPSIAVKANTNKPHVPKPIEPLHNLSLTEKSWPKDSSVVYAKSLEHSGSLDDPNRISLVKRNAVLPSKPLQDREAMDDKPGVSGQLPKGKALELALKRPRPPVLSVCSSSETPYLLKETNKGNGQGEDRNLLYYSKLGLVIPSSGSGSGNQSIDRSGPLVKSLLRRSLSMDSQVPVYSPSIDLKSSQGSSSVSSDAPGNVLCALSQKSSLKDCSEKTALDDRPQVLQPHRLRSFSASQSTDREGASPVTEVRIKTEPSSPLSDPSDIIRVTVGDAATTAAASSSSVTRDLSLKTEDDQKDMSRLPAKRRFQADRRLPFKKLKVNEHGSPVSEDNFEEGSSPTLLDADFPDSDLNKDEFGELEGTRPNKKFKCKHCLKIFRSTAGLHRHVNMYHNPEKPYACDICHKRFHTNFKVWTHCQTQHGIVKNPSPASSSHAVLDEKFQRKLIDIVREREIKKALIIKLRRGKPGFQGQSSSQAQQVIKRNLRSRAKGAYICTYCGKAYRFLSQFKQHIKMHPGEKPLGVNKVAKPKEHAPLASPVENKEVYQCRLCNAKLSSLLEQGSHERLCRNAAVCPYCSLRFFSPELKQEHESKCEYKKLTCLECMRTFKSSFSIWRHQVEVHNQNNMAPTENFSLPVLDHNGDVTGSSRPQSQPEPNKVNHIVTTKDDNVFSDSSEQVNFDSEDSSCLPEDLSLSKQLKIQVKEEPVEEAEEEAPEASTAPKEAGPSKEASLWPCEKCGKMFTVHKQLERHQELLCSVKPFICHVCNKAFRTNFRLWSHFQSHMSQASEESAHKESEVCPVPTNSPSPPPLPPPPPLPKIQPLEPDSPTGLSENPTPATEKLFVPQESDTLFYHAPPLSAITFKRQFMCKLCHRTFKTAFSLWSHEQTHN

Second part, the binder before the results:

Binder | binding [1] | binding [2]
KLHL26 (protein, UniProt Q53HC5 1-615) MAESGGSSGGAGGGGAFGAGPGPERPNSTADKNGALKCTFSAPSHSTSLLQGLATLRAQGQLLDVVLTINREAFPAHKVVLAACSDYFRAMFTGGMREASQDVIELKGVSARGLRHIIDFAYSAEVTLDLDCVQDVLGAAVFLQMLPVVELCEEFLKAAMSVETCLNIGQMATTFSLASLRESVDAFTFRHFLQIAEEEDFLRLPLERLVFFLQSNRLQSCAEIDLFRAAVRWLQHDPARRPRASHVLCHIRFPLMQSSELVDSVQTLDIMVEDVLCRQYLLEAFNYQVLPFRQHEMQSPRTAVRSDVPSLVTFGGTPYTDSDRSVSSKVYQLPEPGARHFRELTEMEVGCSHTCVAVLDNFVYVAGGQHLQYRSGEGAVDACYRYDPHLNRWLRLQAMQESRIQFQLNVLCGMVYATGGRNRAGSLASVERYCPRRNEWGYACSLKRRTWGHAGAASGGRLYISGGYGISVEDKKALHCYDPVADQWEFKAPMSEPRVLHAMVGAGGRIYALGGRMDHVDRCFDVLAVEYYVPETDQWTSVSPMRAGQSEAGCCLLERKIYIVGGYNWRLNNVTGIVQVYNTDTDEWERDLHFPESFAGIACAPVLLPRAGTRR | binds | binds
ZBTB1 (protein, UniProt Q9Y2K1 1-713) MAKPSHSSYVLQQLNNQREWGFLCDCCIAIDDIYFQAHKAVLAACSSYFRMFFMNHQHSTAQLNLSNMKISAECFDLILQFMYLGKIMTAPSSFEQFKVAMNYLQLYNVPDCLEDIQDADCSSSKCSSSASSKQNSKMIFGVRMYEDTVARNGNEANRWCAEPSSTVNTPHNREADEESLQLGNFPEPLFDVCKKSSVSKLSTPKERVSRRFGRSFTCDSCGFGFSCEKLLDEHVLTCTNRHLYQNTRSYHRIVDIRDGKDSNIKAEFGEKDSSKTFSAQTDKYRGDTSQAADDSASTTGSRKSSTVESEIASEEKSRAAERKRIIIKMEPEDIPTDELKDFNIIKVTDKDCNESTDNDELEDEPEEPFYRYYVEEDVSIKKSGRKTLKPRMSVSADERGGLENMRPPNNSSPVQEDAENASCELCGLTITEEDLSSHYLAKHIENICACGKCGQILVKGRQLQEHAQRCGEPQDLTMNGLGNTEEKMDLEENPDEQSEIRDMFVEMLDDFRDNHYQINSIQKKQLFKHSACPFRCPNCGQRFETENLVVEHMSSCLDQDMFKSAIMEENERDHRRKHFCNLCGKGFYQRCHLREHYTVHTKEKQFVCQTCGKQFLRERQLRLHNDMHKGMARYVCSICDQGNFRKHDHVRHMISHLSAGETICQVCFQIFPNNEQLEQHMDVHLYTCGICGAKFNLRKDMRSHYNAKHLKRT | binds | binds
KLHL42 (protein, UniProt Q9P2K6 1-505) MSAEEMVQIRLEDRCYPVSKRKLIEQSDYFRALYRSGMREALSQEAGGPEVQQLRGLSAPGLRLVLDFINAGGAREGWLLGPRGEKGGGVDEDEEMDEVSLLSELVEAASFLQVTSLLQLLLSQVRLNNCLEMYRLAQVYGLPDLQEACLRFMVVHFHEVLCKPQFHLLGSPPQAPGDVSLKQRLREARMTGTPVLVALGDFLGGPLAPHPYQGEPPSMLRYEEMTERWFPLANNLPPDLVNVRGYGSAILDNYLFIVGGYRITSQEISAAHSYNPSTNEWLQVASMNQKRSNFKLVAVNSKLYAIGGQAVSNVECYNPEQDAWNFVAPLPNPLAEFSACECKGKIYVIGGYTTRDRNMNILQYCPSSDMWTLFETCDVHIRKQQMVSVEETIYIVGGCLHELGPNRRSSQSEDMLTVQSYNTVTRQWLYLKENTSKSGLNLTCALHNDGIYIMSRDVTLSTSLEHRVFLKYNIFSDSWEAFRRFPAFGHNLLVSSLYLPNKAET | binds | binds
KLHL28 (protein, UniProt Q9NXS3 1-571) MDHTSPTYMLANLTHLHSEQLLQGLNLLRQHHELCDIILRVGDVKIHAHKVVLASVSPYFKAMFTGNLSEKENSEVEFQCIDETALQAIVEYAYTGTVFISQDTVESLLPAANLLQIKLVLKECCAFLESQLDPGNCIGISRFAETYGCRDLYLAATKYICQNFEAVCQTEEFFELTHADLDEIVSNDCLNVATEETVFYALESWIKYDVQERQKYLAQLLNSVRLPLLSVKFLTRLYEANHLIRDDRTCKHLLNEALKYHFMPEHRLSHQTVLMTRPRCAPKVLCAVGGKSGLFACLDSVEMYFPQNDSWIGLAPLNIPRYEFGICVLDQKVYVIGGIATNVRPGVTIRKHENSVECWNPDTNTWTSLERMNESRSTLGVVVLAGELYALGGYDGQSYLQSVEKYIPKIRKWQPVAPMTTTRSCFAAAVLDGMIYAIGGYGPAHMNSVERYDPSKDSWEMVASMADKRIHFGVGVMLGFIFVVGGHNGVSHLSSIERYDPHQNQWTVCRPMKEPRTGVGAAVIDNYLYVVGGHSGSSYLNTVQKYDPISDTWLDSAGMIYCRCNFGLTAL | binds | binds
KLHL5 (protein, UniProt Q96PQ7 1-755) MNVIYFPLHIFVVYSRAYTSLVLVGCTNLCAVLFARCLDDHLVSLRMSGSRKEFDVKQILKIRWRWFGHQASSPNSTVDSQQGEFWNRGQTGANGGRKFLDPCSLQLPLASIGYRRSSQLDFQNSPSWPMASTSEVPAFEFTAEDCGGAHWLDRPEVDDGTSEEENESDSSSCRTSNSSQTLSSCHTMEPCTSDEFFQALNHAEQTFKKMENYLRHKQLCDVILVAGDRRIPAHRLVLSSVSDYFAAMFTNDVREARQEEIKMEGVEPNSLWSLIQYAYTGRLELKEDNIECLLSTACLLQLSQVVEACCKFLMKQLHPSNCLGIRSFADAQGCTDLHKVAHNYTMEHFMEVIRNQEFVLLPASEIAKLLASDDMNIPNEETILNALLTWVRHDLEQRRKDLSKLLAYIRLPLLAPQFLADMENNVLFRDDIECQKLIMEAMKYHLLPERRPMLQSPRTKPRKSTVGTLFAVGGMDSTKGATSIEKYDLRTNMWTPVANMNGRRLQFGVAVLDDKLYVVGGRDGLKTLNTVECYNPKTKTWSVMPPMSTHRHGLGVAVLEGPMYAVGGHDGWSYLNTVERWDPQARQWNFVATMSTPRSTVGVAVLSGKLYAVGGRDGSSCLKSVECFDPHTNKWTLCAQMSKRRGGVGVTTWNGLLYAIGGHDAPASNLTSRLSDCVERYDPKTDMWTAVASMSISRDAVGVCLLGDKLYAVGGYDGQAYLNTVEAYDPQTNEWTQVAPLCLGRAGACVVTVKL | binds | binds
